These are yes or no findings as the source states them, for the method shown. In cells and extracts the contact can be indirect. Some binding calls cover weakened binding; strength is not graded here.
Target: eIF4E (human (endogenous in PC3 human prostate cancer cells)) (UniProt P06730)
Experiment: cap-binding assay (m7GTP-sepharose pull-down from PC3-4EBP1^M lysate, western blot)

By UniProt entry, the sequences of proteins in these tests, tags left out. Residues count along the entry.
UniProt P06730, residues 2-217: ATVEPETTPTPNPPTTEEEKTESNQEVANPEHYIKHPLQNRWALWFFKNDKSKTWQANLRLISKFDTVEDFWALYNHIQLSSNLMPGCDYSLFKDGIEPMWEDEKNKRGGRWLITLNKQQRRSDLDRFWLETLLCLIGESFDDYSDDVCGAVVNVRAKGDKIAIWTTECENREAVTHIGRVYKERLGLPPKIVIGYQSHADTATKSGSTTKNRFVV

B1: endogenous 4EBP2 (protein, UniProt Q13542 1-120, looked up)
chain: MSSSAGSGHQPSQSRAIPTRTVAISDAAQLPHDYCTTPGGTLFSTTPGGTRIIYDRKFLLDRRNSPMAQTPPCHLPNIPGVTSPGTLIEDSKVEVNNLNNLNNHDRKHAVGDDAQFEMDI
binding: binds

— patent US20140243356A1
